Reference: PubChem BioAssay AID1671195 (Yale University, 2021)
Assay: 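Knockdowns that increase or decrease uptake of fluorescent LDL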 (primary screen). System: human Huh7 hepatoma cells. Reagent: siRNA pool against human genes, 18 nM. Timing: about 2 to 2.5 days of knockdown, then 8 h LDL uptake. Challenge: DiI-labelled LDL at 30 µg/ml for 8 h, in lipoprotein-deficient serum medium. Measured: 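Fluorescent LDL signal imaged in cells, scaled to the plate median, robust z-score for each replicate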. Reading the numbers: robust z-score: higher = more LDL uptake after knockdown. Call rule: 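Active when two or more replicates show a robust z-score above 2 or below -2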.
Shown is one part, drawn at random, of about 22,000 reagents. About 1,510 of them (6.9%) count as active. 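Active includes knockdowns raising or lowering LDL uptake; positive z-scores mean more uptake, negative mean less.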 Unmarked entries are inactive. No sequences are given here.

| robust z-score, replicate 1 | robust z-score, replicate 2 | robust z-score, replicate 3 | Gene |
| --- | --- | --- | --- |
| 0.41 | 0.15 | 0.166 | CACNA1E (calcium voltage-gated channel subunit alpha1 E) |
| 0.546 | -0.0629 | 1.1 | SOS2 (SOS Ras/Rho guanine nucleotide exchange factor 2) |
| -1.15 | -1.85 | -1.04 | WAC (WW domain containing adaptor with coiled-coil) |
| -1.15 | -0.291 | -0.742 | LOC441643 (retired record) |
| 0.858 | 0.0122 | 0.613 | LOC150519 (retired record) |
| -1.09 | -1.46 | -1.44 | LOC284788 |
| -1.32 | -0.701 | -0.965 | TAB3 (TGF-beta activated kinase 1 (MAP3K7) binding protein 3) |
| 1.35 | 0.96 | 1.36 | PANK1 (pantothenate kinase 1) |
| -0.0942 | -0.495 | -0.53 | CGAS (cyclic GMP-AMP synthase) |
| 1.5 | 1.28 | 1.07 | CIAO2A (cytosolic iron-sulfur assembly component 2A) |
| 1.49 (active) | 2.06 | 1.91 | LOC388643 (retired record) |
| 1.04 | 1.26 | 0.695 | ZYG11A (zyg-11 family member A, cell cycle regulator) |
| -2.05 (active) | -2.09 | -1.87 | FLOT1 (flotillin 1) |
| -1.93 | -1.15 | 0.00946 | SMPX (small muscle protein X-linked) |
| -1.2 | -1.33 | -1.14 | SLC30A10 |
| -0.499 | -0.516 | -0.425 | FNTAP1 (farnesyltransferase, CAAX box, alpha pseudogene 1) |
| 1.88 (active) | 2.13 | 2.45 | SSTR5-AS1 (SSTR5 antisense RNA 1) |
| 0.796 | 0.416 | -0.117 | TBC1D17 (TBC1 domain family member 17) |
| 1.27 | 0.614 | 0.996 | CDC23 (cell division cycle 23) |
| 1.42 | 1.24 | 2.12 | OR8K3 |
| 0.688 | -0.416 | 0.425 | HAUS4 (HAUS augmin like complex subunit 4) |
| -0.0128 | -0.157 | 1.23 | GOLT1A (golgi transport 1A) |
| -0.956 | -1.21 | -1 | TENT4B (terminal nucleotidyltransferase 4B) |
| 0.851 | 0.751 | -0.431 | CCDC47 (coiled-coil domain containing 47) |
| -0.321 | -0.00527 | 0.147 | LOC441792 (retired record) |
| 0.448 | 1.27 | 0.548 | LOC388397 (retired record) |
| 2.56 (active) | 2.2 | 3.01 | TAS2R40 (taste 2 receptor member 40) |
| 0.941 | 0.621 | -0.409 | XXYLT1 (xyloside xylosyltransferase 1) |

Single entries from above.
TAB3 (TGF-beta activated kinase 1 (MAP3K7) binding protein 3), robust z-score, replicate 2 → -0.701
TENT4B (terminal nucleotidyltransferase 4B), robust z-score, replicate 3 = -1
